{"source": "PubChem BioAssay AID602296", "about": "(Broad Institute, 2012)", "note": "About 190 (9.5%) of roughly 2,000 compounds were called active. Not shown: some 14% with an inconclusive outcome.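 The calls were made as follows: active = fitted activation curve crossing 40% at a concentration no higher than the sample's top valid tested dose; inconclusive = flat fitted curve at 30% to 70% activation, or poor curve fit; inactive = signal decrease, flat curve within 30%, or the rest.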 This part holds few or none of the hits."}
{"test": "sustained heat shock response element induction – cell-based, mouse, luciferase, cherry-pick, dose, confirmation (AID 602296);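 also: test compounds applied by themselves with no MG132 co-treatment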", "details": "NIH3T3-HGL HSF-1 response element luciferase, 48 h; at 26 µM (top of the series) unless noted"}
{"smiles": "Cc1cc(=O)c2n(Cc3ccccc3Cl)nc[n+]2[nH]1", "activation": "inactive: -3.29%"}
{"smiles": "O=C(Nc1ccc(OCC(F)(F)C(F)F)c(C(F)(F)F)c1)c1ccccc1O", "activation": "inactive: -78.6%"}
{"smiles": "Cc1ccc[n+](CC(=O)Nc2ccc([N+](=O)[O-])cc2Cl)c1", "activation": "inactive: -4.44%"}
{"smiles": "Cc1ccc(C(=O)CSc2nnnn2C(C)C)c(C)c1", "activation": "inactive: -94.9%"}
{"smiles": "CCN(CCO)c1nc(SC)nc2c1sc1nc(-c3ccco3)c3c(c12)CCC3", "activation": "inactive: -28.5%"}
{"smiles": "CSc1cc(-c2ccco2)oc1C(=O)c1ccco1", "activation": "inactive: 10.5%"}
{"smiles": "CCCCOC(=O)CCc1c(C)n[nH]c1C", "activation": "inactive: 14.6%"}
{"smiles": "CN1CCN(Cc2c(O)ccc3cc(Br)ccc23)CC1", "activation": "inactive: 23.8%"}
{"smiles": "S=c1[nH]nc(-c2cc(-c3ccccc3)n[nH]2)n1/N=C/C(Br)=C/c1ccccc1", "activation": "inactive: -108%"}
{"smiles": "Cc1ccc(NC(=O)COC(=O)/C=C/c2ccc(Br)o2)cc1S(=O)(=O)N(C)C", "activation": "inactive: -28.6%"}
{"smiles": "COc1ccc(-c2cc(CCCC(=O)NCCc3ccc(OC)cc3OC)no2)cc1", "activation": "inactive: -34.9%"}
{"smiles": "Cc1cc(C)c2c(NC(=O)C3CC3)nn(C)c2n1", "activation": "inactive: 9.49%"}
{"smiles": "COc1ccc2c(c1)CCc1c(C(=O)N3CC4(C)CC3CC(C)(C)C4)noc1-2", "note": "(stereo unspecified)", "activation": "inactive: -49.6%"}
{"smiles": "CCOC(=S)SCC(=O)N1CCc2cc(OC)c(OC)cc2C1C1C(=O)CC(C)(C)CC1=O", "note": "(stereo unspecified)", "activation": "inactive: 5.12%"}
{"smiles": "Cc1cc(=O)[nH]c(N/N=C/c2ccc(O)c(O)c2)n1", "activation": "inactive: 2.3%"}
{"smiles": "CCC1CSC(Nc2ccc(C(=O)/C=C/c3cccc(C)c3)cc2)=N1", "note": "(stereo unspecified)", "activation": "inactive: -95.4%"}
{"smiles": "COc1ccc(NC(=O)C2CC(=O)NC(Nc3cccc(C)c3)=N2)cc1", "note": "(stereo unspecified)", "activation": "inactive: -11.4%"}
{"smiles": "CC1=C(/C=C/C(=O)O)C(C)(C)CCC1", "activation": "inactive: 9.15% [at 12 µM]"}
{"smiles": "N#CC(CO)(Cc1ccc(OC(F)F)cc1)c1nc2ccccc2[nH]1", "note": "(stereo unspecified)", "activation": "inactive: -6.74%"}
{"smiles": "COc1ccc(C(=O)Cn2c(C)nc([N+](=O)[O-])c2Br)cc1", "activation": "inactive: -95%"}
{"smiles": "CCC(C)C(=O)Nc1ncc2c(n1)CC(c1cccs1)CC2=O", "note": "(stereo unspecified)", "activation": "inactive: 0.061%"}
{"smiles": "CCCc1[nH]nc2c1C(c1cc(OC)ccc1F)C(C#N)=C(N)O2", "note": "(stereo unspecified)", "activation": "inactive: -18.2%"}
{"smiles": "O=C(C[n+]1cccc(C(=O)Nc2ccccc2)c1)c1ccc([N+](=O)[O-])cc1", "activation": "inactive: -7.73%"}
{"smiles": "CCN(Cc1ccccc1)S(=O)(=O)c1cc(C(=O)NCC2CCCCC2)ccc1OC", "activation": "inactive: -52.4%"}
{"smiles": "O=C(CC1C=Cc2ccccc2N1C(=O)c1ccccc1)c1ccccc1", "note": "(stereo unspecified)", "activation": "inactive: -23%"}
{"smiles": "O=C1CN(C(=O)c2ccc(Br)o2)C(c2ccc(F)cc2)c2cc(Cl)ccc2N1", "note": "(stereo unspecified)", "activation": "inactive: -32.9%"}
{"smiles": "Cc1ccccc1Cn1nc(C)c(NC(=O)C2c3ccccc3Oc3ccccc32)c1C", "activation": "inactive: -7.67%"}
{"smiles": "Cc1cc(=O)oc2c(C)c(OC(C)C(=O)NCC(O)c3ccccc3)ccc12", "note": "(stereo unspecified)", "activation": "inactive: 13.6%"}
{"smiles": "CN1CCN(C(=O)c2ccc(Cn3cc(Cl)cn3)o2)CC1", "activation": "inactive: -5.24%"}
{"smiles": "COc1cc(NC(=S)NC(C)(C)C)c(OC)cc1Cl", "activation": "inactive: 6.75%"}
{"smiles": "FC(F)(F)c1cnc(Sc2nc3nccc(-c4ccc(Cl)cc4)n3n2)c(Cl)c1", "activation": "inactive: -82.3%"}
{"smiles": "CCOc1ccc(C)cc1S(=O)(=O)NC1CCCCC1", "activation": "inactive: -5.73%"}
{"smiles": "O=C(NCc1nnc(SCc2ccccc2)n1-c1ccccc1)C12CC3CC(CC(C3)C1)C2", "activation": "inactive: -21.2%"}
{"smiles": "CCC(=NCc1ccc(Cl)c(Cl)c1)c1nc(-c2ccco2)oc1O", "activation": "inactive: -69.1%"}
{"smiles": "CN1c2ccccc2C(O)=C(C(=S)Nc2ccc(Cl)cc2)S1(=O)=O", "activation": "inactive: -26.5%"}
{"smiles": "CN1C(=O)C2(c3ccccc31)N(C)CC(c1ccccn1)C21SC(=S)N(Cc2ccco2)C1=O", "note": "(stereo unspecified)", "activation": "inactive: -66.3%"}
{"smiles": "COc1ccc(-c2cn[nH]c2-c2ccc(OCc3ccc([N+](=O)[O-])cc3)cc2O)cc1OC", "activation": "inactive: -39.6%"}
{"smiles": "CC1=CC(C)(C)NC(=S)N1c1cccc(C)c1", "activation": "inactive: -12.8%"}
{"smiles": "CCN(CC)S(=O)(=O)c1ccc(C)c(NC(=S)Nc2cccc(S(=O)(=O)N3CCCCCC3)c2)c1", "activation": "inactive: -53.3%"}
{"smiles": "CCn1c2ccccc2c2cc(NC(=O)CSc3nnc(-c4cccc(OC)c4)n3N)ccc21", "activation": "inactive: -37.1%"}
{"smiles": "Cc1nc(Sc2ccc(Br)cc2)c(C#N)c(C)c1[N+](=O)[O-]", "activation": "inactive: -87.9%"}
{"smiles": "COC(=O)C1C(=O)C2=C(CC1C)NC(C)=C(C(=O)OCc1ccc(OC)cc1)C2c1ccc(C)o1", "note": "(stereo unspecified)", "activation": "inactive: -8.89%"}
{"smiles": "Cc1ccn2c(C(=O)N/N=C\\c3ccccc3[N+](=O)[O-])c(C)nc2c1", "activation": "inactive: 4.21%"}
{"smiles": "N#CCC(=O)Nc1ccc(C(=O)OCC(=O)Nc2ccccc2Sc2ccccc2)cc1", "activation": "inactive: -9.43%"}
{"smiles": "COc1ccc(N(CC(=O)NCCC2=CCCCC2)S(=O)(=O)c2ccccc2)cc1", "activation": "inactive: -11.1%"}
{"smiles": "CC(C)(C)NC(=O)c1ccc2c3c(cccc13)CC2", "activation": "inactive: 4.29%"}
{"smiles": "CC(=O)NCCC(=O)Nc1nc(-c2cccs2)c(-c2cccs2)s1", "activation": "inactive: 9.96%"}
{"smiles": "CC(=O)n1c2c(c3ccccc31)OC(N)=C(C#N)C2c1cccc(Cl)c1Cl", "note": "(stereo unspecified)", "activation": "inactive: 7.42%"}
{"smiles": "COc1cc(C2NC(=O)NC(C)=C2C(=O)OC2CCCCC2)cc(Cl)c1O", "note": "(stereo unspecified)", "activation": "inactive: -9.39%"}
{"smiles": "COc1ccc(C(=O)/C=C2/C(=O)Nc3ccccc32)cc1OC", "activation": "inactive: 14.5%"}
{"smiles": "Cc1ccc(Cl)cc1N1CCN(C2CCCCC2NS(=O)(=O)c2ccccc2)CC1", "note": "(stereo unspecified)", "activation": "inactive: 3.93%"}
{"smiles": "O=C(CCCSc1nc2ccccc2[nH]1)N1CCN(c2ccc([N+](=O)[O-])cc2)CC1", "activation": "inactive: -50.4% [at 12 µM]"}
{"smiles": "COc1cc(OC)c(N(C)S(=O)(=O)c2cccc(C(=O)Nc3nnc(C4CC4)s3)c2)cc1Cl", "activation": "inactive: -3.17%"}
{"smiles": "CC(=O)C1=C(C)NC2(O)c3ccccc3C(=O)C12O", "note": "(stereo unspecified)", "activation": "inactive: -9.25%"}
{"smiles": "COc1cc(C2C(C(=O)c3cc4ccccc4o3)=C(O)C(=O)N2c2cc(C)on2)cc(OC)c1OC", "note": "(stereo unspecified)", "activation": "inactive: 4.2%"}
{"smiles": "COc1cccc(/C=C2\\N=C(SC)SC2=O)c1OC", "activation": "inactive: 12.8%"}
